# Reference: paper PMC11698047
# Amino acid sequences for entries named in this document (tags omitted). A change or cut given only in a name is not applied to a line headed by its entry. Chains listed by the source or under a name are the forms on record and can include a tag or linker.
# Drosophila melanogaster GTPase Rap1G12V (amino acids 1-180), GMPPNP-loaded (P08645, form named): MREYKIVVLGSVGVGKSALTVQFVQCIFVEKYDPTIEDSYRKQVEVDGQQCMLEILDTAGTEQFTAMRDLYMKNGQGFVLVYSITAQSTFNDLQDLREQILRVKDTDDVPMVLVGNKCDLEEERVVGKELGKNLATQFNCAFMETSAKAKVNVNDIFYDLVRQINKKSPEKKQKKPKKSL
# No constants are given. Whether binding was seen depends on the method and setting.
# Target: Drosophila melanogaster GTPase Rap1G12V (amino acids 1-180), GMPPNP-loaded (Drosophila melanogaster) (UniProt P08645)
# Assay: SEC-MALS; 100 µl of individual proteins (200 µM) or RA domain-Rap1G12V-GMPPNP complexes (200 µM complex) on Superdex 200, 0.5 ml/min, buffer C (25 mM HEPES-NaOH pH 7.5, 100 mM NaCl, 5 mM MgCl2, 0.1% β-ME) with 0.2 g/l sodium azide; in duplicate; both purified
substance,measurement,value
"Drosophila melanogaster GTPase Rap1G12V (amino acids 1-180), GMPPNP-loaded (from UniProt P08645 1-180) (enzyme)",binding,no binding (tested: 200 µM)
